From publication PMC3929664, “A Panel of Diverse Assays to Interrogate the Interaction between Glucokinase and Glucokinase Regulatory Protein, Two Vital Proteins in Human Disease” (PLoS ONE, 2014) come the findings set out here.

Where two headings read alike, the source gives them in different places.

Assay [1] has as its system cryopreserved pooled male Sprague-Dawley rat hepatocytes. Put plainly: GCK translocation in cryopreserved rat hepatocytes (high-content imaging). The conditions noted are these: 2.5 mM glucose, 31.6 µM GKA, 2 hours. Format: cell-based.
In assay [2] the test system is cryopreserved human hepatocytes. Nature of the assay: GCK translocation in cryopreserved human hepatocytes (GKRP-positive cells). It counts as cell-based. The conditions noted are these: for EC50: Homo sapiens, Hepatocyte.

On to `Cc1csc(NC(=O)c2cc(Sc3nncn3C)ccc2N)n1` [GKA-EMD, 2-Amino-5-(4-methyl-4H-(1,2,4)-triazole-3-yl-sulfanyl)-N-(4-methyl-thiazole-2-yl)benzamide], for which the GCK translocation in assay [1] was 83%. Moreover, the EC50 (commonly the concentration giving half of the maximal effect) is 3.4 ± 2 µM in assay [2] (read-out: EC50 of GCK translocation, lot FOS, 2.5 mM glucose, mean ± SD); 3.2 ± 1.4 µM in assay [2] (read-out: EC50 of GCK translocation, lot FOS, 8.9 mM glucose, mean ± SD); 1.7 ± 0.9 µM in assay [2] (read-out: EC50 of GCK translocation, lot FOS, 16.8 mM glucose, mean ± SD). The GCK translocation response result in assay [2] (lot FOS) is listed as “approximately two-fold at maximum”; in assay [2] (lot TRZ, 2.5 mM glucose), “approximately 4.5 fold”.
